Earlier results, collected in article PMC6790288 (The journal of pain : official journal of the American Pain …, 2019).

Target: norepinephrine transporter
Conditions: read-out: inhibition of norepinephrine uptake (Ki); in vitro; cited from earlier work

For `COc1cccc(C2(O)CCCCC2CN(C)C)c1` (single isomer, unassigned; (-)) [(−)-tramadol], the Ki is listed as 0.5 to 1.6 µM.
